Binding data for four molecules are collected here from article PMC11721465.

No constants are given. Whether binding was seen depends on the method and setting. Some entries that bind do so weakly or less than the wild type.

Assay [1] concerns the target T1, TREM2 (19–134) WT, biotinylated (human) (UniProt Q9NZC2).
T1 sequence (chain, biotin on the C-terminal BirA biotinylation sequence (enzymatic, BirA)): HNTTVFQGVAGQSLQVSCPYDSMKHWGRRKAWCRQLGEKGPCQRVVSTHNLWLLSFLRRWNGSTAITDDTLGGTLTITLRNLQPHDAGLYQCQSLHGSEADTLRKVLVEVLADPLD
Kind of assay: BLI; sequential competition: biotinylated TREM2 WT on SA biosensors dipped into a first ligand or no ligand, then buffer, then a second ligand; binding of the second ligand = response at end minus beginning of Association 2; both purified. Background: Biolayer interferometry detects binding as a change in optical thickness at a sensor tip.

The target of assay [2] is T2, TREM2 (19–134) R76D, biotinylated (human) (UniProt Q9NZC2).
T2 sequence (chain, biotin on the C-terminal BirA biotinylation sequence (enzymatic, BirA)): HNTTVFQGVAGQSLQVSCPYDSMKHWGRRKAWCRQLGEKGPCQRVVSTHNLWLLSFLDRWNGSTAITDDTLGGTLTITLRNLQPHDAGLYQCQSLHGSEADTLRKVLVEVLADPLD
Kind of assay: BLI; biotinylated TREM2 WT or variant immobilised on SA biosensors; IL-34 62.5–1000 nM; PBS with 0.1% BSA and 0.005% Tween-20; 1:1 kinetic fits; both purified.

Assay [3] addresses sTREM2 (19–157) WT (human) (UniProt Q9NZC2). Kind of assay: SEC-MALS; 10 µL of sTREM2 WT at 2 mg/mL on a Superdex 200 Increase 5/150 GL column; both purified. In general terms: SEC sorts molecules by how far they enter the pores of the column.
Assay [4] deals with sTREM2 (19–157) W44D/L69D/L71D (human) (UniProt Q9NZC2). Kind of assay: SEC; elution volumes of sTREM2 variants compared with WT (Supplemental Fig. 3); both purified.
In assay [5] the target is sTREM2 (19–157) L69D/L71D (human) (UniProt Q9NZC2). The description is as above.

B1: Human IL-34 (19–241) (ligand, UniProt Q6ZMJ4 19-241)
chain: LGNEPLEMWPLTQNEECTVTGFLRDKLQYRSRLQYMKHYFPINYKISVPYEGVFRIANVTRLQRAQVSERELRYLWVLVSLSATESVQDVLLEGHPSWKYLQEVETLLLNVQQGLTDVEVSPKVESVLSLLNAPGPNLKLVRPKALLDNCFRVMELLYCSCCKQSSVLNWQDCEVPSPQSCSPEPSLQYAATQLYPPPPWSPSSPPHSTGSVRPVRAQGEGLL
As to B1, the binding entry in assay [1] is “binds”; in assay [2], “no binding (tested: 62.5–1000 nM)”.

B2: sTREM2 (19–157) WT (domain or fragment, UniProt Q9NZC2 19-157)
chain: HNTTVFQGVAGQSLQVSCPYDSMKHWGRRKAWCRQLGEKGPCQRVVSTHNLWLLSFLRRWNGSTAITDDTLGGTLTITLRNLQPHDAGLYQCQSLHGSEADTLRKVLVEVLADPLDHRDAGDLWFPGESESFEDAHVEH
For B2, in assay [3], the binding result was “no binding (tested: 2 mg/mL)”.

B3: sTREM2 (19–157) W44D/L69D/L71D (domain or fragment, UniProt Q9NZC2 19-157)
chain: HNTTVFQGVAGQSLQVSCPYDSMKHDGRRKAWCRQLGEKGPCQRVVSTHNDWDLSFLRRWNGSTAITDDTLGGTLTITLRNLQPHDAGLYQCQSLHGSEADTLRKVLVEVLADPLDHRDAGDLWFPGESESFEDAHVEH
Regarding B3, the binding entry in assay [4] was “no binding”.

B4: sTREM2 (19–157) L69D/L71D (domain or fragment, UniProt Q9NZC2 19-157)
chain: HNTTVFQGVAGQSLQVSCPYDSMKHWGRRKAWCRQLGEKGPCQRVVSTHNDWDLSFLRRWNGSTAITDDTLGGTLTITLRNLQPHDAGLYQCQSLHGSEADTLRKVLVEVLADPLDHRDAGDLWFPGESESFEDAHVEH
On to B4, for which the binding result in assay [5] is listed as “no binding”.
